Among the data in paper PMC4967827 are binding values, retold here.

The chains behind the UniProt entries cited, without tags or fusion partners.
UniProt P0A9A6: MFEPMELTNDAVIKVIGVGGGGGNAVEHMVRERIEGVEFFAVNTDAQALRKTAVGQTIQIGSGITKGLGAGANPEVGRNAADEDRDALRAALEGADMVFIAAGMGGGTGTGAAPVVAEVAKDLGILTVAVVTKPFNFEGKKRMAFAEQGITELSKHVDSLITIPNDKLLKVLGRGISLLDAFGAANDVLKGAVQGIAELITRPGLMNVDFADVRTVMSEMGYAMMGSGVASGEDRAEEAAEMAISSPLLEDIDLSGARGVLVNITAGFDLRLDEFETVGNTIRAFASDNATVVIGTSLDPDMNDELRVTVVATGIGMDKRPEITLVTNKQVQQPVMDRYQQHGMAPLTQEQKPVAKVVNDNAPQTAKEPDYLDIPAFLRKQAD

These are yes or no findings as the source states them, for the method shown. In cells and extracts the contact can be indirect. Some entries that bind do so weakly or less than the wild type. Sequences can lack the tags named with a protein.

In assay [1] the target is T1, MBP-fused DicB-ΔN13 (E. coli) (UniProt P09557).
T1 sequence: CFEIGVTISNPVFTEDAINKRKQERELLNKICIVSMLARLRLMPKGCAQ
Kind of assay: pull-down; proteins expressed separately; supernatants mixed and incubated 1 h, amylose column, maltose elution, SEC; SDS–PAGE, Coomassie (MBP–DicB–MBP and MBP–DicB truncation derivatives with MinC).

For assay [2], the target named is T2, MBP-fused DicB-ΔN26 (E. coli) (UniProt P09557).
T2 sequence: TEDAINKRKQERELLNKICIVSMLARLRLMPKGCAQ
The assay is described as above.

Assay [3] has as its target T3, MBP-fused DicB-ΔN6 (E. coli) (UniProt P09557).
T3 sequence: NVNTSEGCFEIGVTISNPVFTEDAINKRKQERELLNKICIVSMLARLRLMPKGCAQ
The description is as above.

Assay [4] concerns the target T4, MBP-fused DicB-ΔN7 (E. coli) (UniProt P09557).
T4 sequence: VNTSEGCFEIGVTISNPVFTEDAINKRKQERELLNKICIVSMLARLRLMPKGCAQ
Described as above.

Another assay concerns the target FtsZ (E. coli) (UniProt P0A9A6). Kind of assay: pull-down; MBP–DicB (no tag) and FtsZ; same procedures except that the supernatant was loaded onto a nickel column; control without FtsZ; SDS–PAGE, Coomassie.

B1: MinC (protein, UniProt P18196 1-231)
chain: MSNTPIELKGSSFTLSVVHLHEAEPKVIHQALEDKIAQAPAFLKHAPVVLNVSALEDPVNWSAMHKAVSATGLRVIGVSGCKDAQLKAEIEKMGLPILTEGKEKAPRPAPTPQAPAQNTTPVTKTRLIDTPVRSGQRIYAPQCDLIVTSHVSAGAELIADGNIHVYGMMRGRALAGASGDRETQIFCTNLMAELVSIAGEYWLSDQIPAEFYGKAARLQLVENALTVQPLN
As for B1, the binding entry in assay [1], in assay [2], in assay [3] and in assay [4] was “binds” throughout.

B2: MBP–DicB lacking C-terminal His-tag (protein, UniProt P09557 1-62)
chain: MKTLLPNVNTSEGCFEIGVTISNPVFTEDAINKRKQERELLNKICIVSMLARLRLMPKGCAQ
On to B2, for which, in the assay with FtsZ (E. coli), the binding result is on record as “no binding”.
